These are yes or no findings as the source states them, for the method shown. Binding seen in cells or lysates may run through a third protein. Some entries that bind do so weakly or less than the wild type.
Key:
Test in all cases: proximity ligation; Duolink In Situ Red PLA on MedB1, UH-01 and U2940 cells with primary Abs and PLUS/MINUS probes; no primary Ab as negative control; red dots counted by confocal microscopy
[1] = target: RanBP2 (NUP358) (human (endogenous in MedB1, UH-01, U2940)) (UniProt P49792)
[2] = target: exportin 1 E571K mutant (XPO1^E571K) (human (endogenous in MedB1 and UH-01)) (UniProt O14980)
[3] = target: exportin 1 (XPO1), wild type (human (endogenous in U2940 and K1106)) (UniProt O14980)

Sequences of proteins named here, by UniProt entry; tags and fusion partners are left off. A change or cut given only in a name is not applied to a line headed by its entry.
UniProt P49792: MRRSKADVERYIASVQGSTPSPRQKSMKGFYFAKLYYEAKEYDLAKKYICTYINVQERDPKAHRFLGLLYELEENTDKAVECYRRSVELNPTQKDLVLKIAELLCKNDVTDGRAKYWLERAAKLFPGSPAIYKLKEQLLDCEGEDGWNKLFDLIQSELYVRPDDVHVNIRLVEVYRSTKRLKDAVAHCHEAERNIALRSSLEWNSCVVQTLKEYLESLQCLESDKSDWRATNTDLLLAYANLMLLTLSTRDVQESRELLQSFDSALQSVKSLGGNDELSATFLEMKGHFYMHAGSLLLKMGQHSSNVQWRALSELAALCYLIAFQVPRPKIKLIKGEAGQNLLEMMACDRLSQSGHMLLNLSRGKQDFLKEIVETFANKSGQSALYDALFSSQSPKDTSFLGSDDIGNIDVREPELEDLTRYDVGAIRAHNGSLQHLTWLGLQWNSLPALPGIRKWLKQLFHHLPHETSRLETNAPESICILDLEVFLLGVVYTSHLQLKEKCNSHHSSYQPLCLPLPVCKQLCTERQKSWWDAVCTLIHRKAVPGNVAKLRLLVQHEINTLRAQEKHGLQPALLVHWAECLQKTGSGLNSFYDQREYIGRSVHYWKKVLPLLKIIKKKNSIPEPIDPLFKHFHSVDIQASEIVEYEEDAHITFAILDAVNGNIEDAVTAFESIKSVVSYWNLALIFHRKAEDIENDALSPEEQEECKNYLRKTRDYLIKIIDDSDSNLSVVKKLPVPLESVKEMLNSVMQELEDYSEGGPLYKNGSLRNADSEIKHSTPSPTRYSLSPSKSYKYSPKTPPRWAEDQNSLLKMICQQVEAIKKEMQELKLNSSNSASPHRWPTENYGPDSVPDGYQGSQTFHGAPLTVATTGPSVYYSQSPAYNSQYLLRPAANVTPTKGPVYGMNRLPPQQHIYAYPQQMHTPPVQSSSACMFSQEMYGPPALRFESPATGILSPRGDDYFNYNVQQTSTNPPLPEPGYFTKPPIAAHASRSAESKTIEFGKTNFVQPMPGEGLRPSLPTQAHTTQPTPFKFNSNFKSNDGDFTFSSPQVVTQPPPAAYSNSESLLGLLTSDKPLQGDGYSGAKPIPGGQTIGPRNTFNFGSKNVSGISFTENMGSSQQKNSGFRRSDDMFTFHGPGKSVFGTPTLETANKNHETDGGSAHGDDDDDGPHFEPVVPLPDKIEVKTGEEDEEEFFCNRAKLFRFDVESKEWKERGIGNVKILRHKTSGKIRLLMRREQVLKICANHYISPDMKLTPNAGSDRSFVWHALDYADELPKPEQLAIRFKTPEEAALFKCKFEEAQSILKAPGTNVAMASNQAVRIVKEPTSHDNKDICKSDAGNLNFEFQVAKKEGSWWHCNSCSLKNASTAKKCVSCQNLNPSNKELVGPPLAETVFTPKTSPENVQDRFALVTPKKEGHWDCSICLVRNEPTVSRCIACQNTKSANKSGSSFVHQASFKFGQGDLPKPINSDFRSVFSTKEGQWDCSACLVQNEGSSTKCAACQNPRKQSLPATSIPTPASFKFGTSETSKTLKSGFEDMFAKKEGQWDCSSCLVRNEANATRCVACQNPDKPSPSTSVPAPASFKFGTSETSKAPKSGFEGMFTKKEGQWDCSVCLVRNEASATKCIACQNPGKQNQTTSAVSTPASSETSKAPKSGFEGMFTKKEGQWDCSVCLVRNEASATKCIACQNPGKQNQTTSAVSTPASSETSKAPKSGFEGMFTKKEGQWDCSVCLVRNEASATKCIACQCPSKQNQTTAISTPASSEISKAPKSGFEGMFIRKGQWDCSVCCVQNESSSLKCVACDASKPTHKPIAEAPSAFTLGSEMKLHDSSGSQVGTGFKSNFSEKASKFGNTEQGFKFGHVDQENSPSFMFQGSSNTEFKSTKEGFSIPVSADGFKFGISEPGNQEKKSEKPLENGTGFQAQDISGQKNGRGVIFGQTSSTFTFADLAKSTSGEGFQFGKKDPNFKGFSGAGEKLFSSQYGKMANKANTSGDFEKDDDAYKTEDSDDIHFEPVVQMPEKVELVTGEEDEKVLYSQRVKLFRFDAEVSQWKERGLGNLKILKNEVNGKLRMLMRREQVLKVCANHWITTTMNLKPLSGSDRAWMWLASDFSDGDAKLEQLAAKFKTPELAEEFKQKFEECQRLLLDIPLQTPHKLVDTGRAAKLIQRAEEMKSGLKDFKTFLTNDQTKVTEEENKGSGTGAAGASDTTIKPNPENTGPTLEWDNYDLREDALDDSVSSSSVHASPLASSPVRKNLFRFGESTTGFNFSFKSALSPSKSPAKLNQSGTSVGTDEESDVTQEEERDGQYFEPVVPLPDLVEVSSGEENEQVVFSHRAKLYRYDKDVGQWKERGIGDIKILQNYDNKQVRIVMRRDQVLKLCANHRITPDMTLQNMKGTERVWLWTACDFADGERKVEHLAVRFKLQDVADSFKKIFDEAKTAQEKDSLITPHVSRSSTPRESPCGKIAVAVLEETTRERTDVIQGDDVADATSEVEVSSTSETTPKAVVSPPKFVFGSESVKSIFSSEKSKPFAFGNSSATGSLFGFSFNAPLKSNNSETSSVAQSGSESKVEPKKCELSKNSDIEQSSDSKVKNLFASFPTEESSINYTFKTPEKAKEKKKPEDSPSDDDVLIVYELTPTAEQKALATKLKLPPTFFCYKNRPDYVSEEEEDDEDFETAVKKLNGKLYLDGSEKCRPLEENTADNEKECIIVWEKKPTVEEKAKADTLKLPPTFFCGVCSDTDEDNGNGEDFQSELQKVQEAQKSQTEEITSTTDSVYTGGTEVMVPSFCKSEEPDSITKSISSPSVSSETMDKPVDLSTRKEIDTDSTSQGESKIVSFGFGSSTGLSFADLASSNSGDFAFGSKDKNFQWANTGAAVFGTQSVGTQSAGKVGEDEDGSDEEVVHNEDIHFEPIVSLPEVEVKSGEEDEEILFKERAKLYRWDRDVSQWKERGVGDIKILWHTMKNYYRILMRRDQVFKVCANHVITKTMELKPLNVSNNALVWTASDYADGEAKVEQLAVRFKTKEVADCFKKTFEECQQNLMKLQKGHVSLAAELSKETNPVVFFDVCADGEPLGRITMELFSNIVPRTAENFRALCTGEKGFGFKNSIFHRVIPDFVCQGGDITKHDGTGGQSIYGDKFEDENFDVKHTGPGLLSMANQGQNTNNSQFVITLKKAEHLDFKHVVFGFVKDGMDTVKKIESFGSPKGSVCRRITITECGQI
UniProt O14980: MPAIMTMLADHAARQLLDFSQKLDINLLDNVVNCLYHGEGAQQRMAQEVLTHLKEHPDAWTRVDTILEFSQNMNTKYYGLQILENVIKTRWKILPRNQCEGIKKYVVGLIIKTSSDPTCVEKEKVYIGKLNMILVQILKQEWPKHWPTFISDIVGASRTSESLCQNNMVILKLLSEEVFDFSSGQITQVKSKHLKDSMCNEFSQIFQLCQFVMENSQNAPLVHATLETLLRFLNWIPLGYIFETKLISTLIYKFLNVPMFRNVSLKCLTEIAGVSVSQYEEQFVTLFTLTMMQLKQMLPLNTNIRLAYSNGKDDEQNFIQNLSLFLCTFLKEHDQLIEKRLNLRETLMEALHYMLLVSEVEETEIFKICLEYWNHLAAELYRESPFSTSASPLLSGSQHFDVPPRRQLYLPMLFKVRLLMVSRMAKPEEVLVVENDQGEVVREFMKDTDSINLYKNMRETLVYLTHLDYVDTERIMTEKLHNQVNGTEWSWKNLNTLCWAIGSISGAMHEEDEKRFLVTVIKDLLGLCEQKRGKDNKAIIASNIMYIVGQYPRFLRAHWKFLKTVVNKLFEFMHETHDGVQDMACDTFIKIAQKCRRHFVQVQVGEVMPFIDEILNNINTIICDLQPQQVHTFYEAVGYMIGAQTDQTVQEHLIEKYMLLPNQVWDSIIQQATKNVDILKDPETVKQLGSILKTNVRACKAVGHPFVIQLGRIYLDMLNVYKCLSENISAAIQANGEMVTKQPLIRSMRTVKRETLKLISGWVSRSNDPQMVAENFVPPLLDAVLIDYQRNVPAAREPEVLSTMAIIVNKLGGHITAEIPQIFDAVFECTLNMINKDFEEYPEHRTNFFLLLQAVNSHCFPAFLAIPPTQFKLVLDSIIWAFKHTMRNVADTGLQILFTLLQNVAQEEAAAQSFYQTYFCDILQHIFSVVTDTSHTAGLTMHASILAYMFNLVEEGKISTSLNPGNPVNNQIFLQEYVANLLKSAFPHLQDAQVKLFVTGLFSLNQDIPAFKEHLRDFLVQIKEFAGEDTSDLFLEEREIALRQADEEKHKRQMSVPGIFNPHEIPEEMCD
UniProt Q14974: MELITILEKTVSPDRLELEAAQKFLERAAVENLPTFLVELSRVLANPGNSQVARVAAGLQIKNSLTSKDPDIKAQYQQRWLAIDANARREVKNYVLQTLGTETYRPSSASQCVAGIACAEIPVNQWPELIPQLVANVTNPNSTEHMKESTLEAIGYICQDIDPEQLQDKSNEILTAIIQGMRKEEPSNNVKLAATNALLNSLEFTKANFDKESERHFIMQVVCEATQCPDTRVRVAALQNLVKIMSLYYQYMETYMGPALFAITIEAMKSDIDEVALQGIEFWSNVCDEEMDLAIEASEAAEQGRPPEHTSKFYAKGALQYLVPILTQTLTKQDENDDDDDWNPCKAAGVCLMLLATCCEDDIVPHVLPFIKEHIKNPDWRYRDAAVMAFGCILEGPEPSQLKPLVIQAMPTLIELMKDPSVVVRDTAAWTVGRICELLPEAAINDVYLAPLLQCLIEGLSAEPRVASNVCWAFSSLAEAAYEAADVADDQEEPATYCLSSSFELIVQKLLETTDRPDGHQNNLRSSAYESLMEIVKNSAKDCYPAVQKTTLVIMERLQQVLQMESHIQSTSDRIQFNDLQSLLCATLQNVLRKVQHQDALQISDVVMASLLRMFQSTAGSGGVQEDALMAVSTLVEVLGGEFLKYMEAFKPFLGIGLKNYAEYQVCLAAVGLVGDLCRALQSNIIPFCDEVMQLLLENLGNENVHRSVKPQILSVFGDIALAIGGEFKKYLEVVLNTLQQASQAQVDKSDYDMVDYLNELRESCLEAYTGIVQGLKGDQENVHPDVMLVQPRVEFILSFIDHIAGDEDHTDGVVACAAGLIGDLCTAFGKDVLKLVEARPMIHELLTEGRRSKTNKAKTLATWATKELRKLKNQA

binding [1]: binds | binding [2]: binds | binding [3]: binds
Substance: karyopherin β1 (importin β1, KPNB1, IPO1) (from UniProt Q14974 1-876)

— paper PMC7600770
